From patent publication US11420944B2, “Voltage-dependent t-type calcium channel blocker” (Nippon Chemiphar Co., Ltd., priority 2016, dated 2022)
Some entries share one result that the patent states for a list of compounds.

Sequences of proteins named here, by UniProt entry; tags and fusion partners are left off. A change or cut given only in a name is not applied to a line headed by its entry.
UniProt O95180: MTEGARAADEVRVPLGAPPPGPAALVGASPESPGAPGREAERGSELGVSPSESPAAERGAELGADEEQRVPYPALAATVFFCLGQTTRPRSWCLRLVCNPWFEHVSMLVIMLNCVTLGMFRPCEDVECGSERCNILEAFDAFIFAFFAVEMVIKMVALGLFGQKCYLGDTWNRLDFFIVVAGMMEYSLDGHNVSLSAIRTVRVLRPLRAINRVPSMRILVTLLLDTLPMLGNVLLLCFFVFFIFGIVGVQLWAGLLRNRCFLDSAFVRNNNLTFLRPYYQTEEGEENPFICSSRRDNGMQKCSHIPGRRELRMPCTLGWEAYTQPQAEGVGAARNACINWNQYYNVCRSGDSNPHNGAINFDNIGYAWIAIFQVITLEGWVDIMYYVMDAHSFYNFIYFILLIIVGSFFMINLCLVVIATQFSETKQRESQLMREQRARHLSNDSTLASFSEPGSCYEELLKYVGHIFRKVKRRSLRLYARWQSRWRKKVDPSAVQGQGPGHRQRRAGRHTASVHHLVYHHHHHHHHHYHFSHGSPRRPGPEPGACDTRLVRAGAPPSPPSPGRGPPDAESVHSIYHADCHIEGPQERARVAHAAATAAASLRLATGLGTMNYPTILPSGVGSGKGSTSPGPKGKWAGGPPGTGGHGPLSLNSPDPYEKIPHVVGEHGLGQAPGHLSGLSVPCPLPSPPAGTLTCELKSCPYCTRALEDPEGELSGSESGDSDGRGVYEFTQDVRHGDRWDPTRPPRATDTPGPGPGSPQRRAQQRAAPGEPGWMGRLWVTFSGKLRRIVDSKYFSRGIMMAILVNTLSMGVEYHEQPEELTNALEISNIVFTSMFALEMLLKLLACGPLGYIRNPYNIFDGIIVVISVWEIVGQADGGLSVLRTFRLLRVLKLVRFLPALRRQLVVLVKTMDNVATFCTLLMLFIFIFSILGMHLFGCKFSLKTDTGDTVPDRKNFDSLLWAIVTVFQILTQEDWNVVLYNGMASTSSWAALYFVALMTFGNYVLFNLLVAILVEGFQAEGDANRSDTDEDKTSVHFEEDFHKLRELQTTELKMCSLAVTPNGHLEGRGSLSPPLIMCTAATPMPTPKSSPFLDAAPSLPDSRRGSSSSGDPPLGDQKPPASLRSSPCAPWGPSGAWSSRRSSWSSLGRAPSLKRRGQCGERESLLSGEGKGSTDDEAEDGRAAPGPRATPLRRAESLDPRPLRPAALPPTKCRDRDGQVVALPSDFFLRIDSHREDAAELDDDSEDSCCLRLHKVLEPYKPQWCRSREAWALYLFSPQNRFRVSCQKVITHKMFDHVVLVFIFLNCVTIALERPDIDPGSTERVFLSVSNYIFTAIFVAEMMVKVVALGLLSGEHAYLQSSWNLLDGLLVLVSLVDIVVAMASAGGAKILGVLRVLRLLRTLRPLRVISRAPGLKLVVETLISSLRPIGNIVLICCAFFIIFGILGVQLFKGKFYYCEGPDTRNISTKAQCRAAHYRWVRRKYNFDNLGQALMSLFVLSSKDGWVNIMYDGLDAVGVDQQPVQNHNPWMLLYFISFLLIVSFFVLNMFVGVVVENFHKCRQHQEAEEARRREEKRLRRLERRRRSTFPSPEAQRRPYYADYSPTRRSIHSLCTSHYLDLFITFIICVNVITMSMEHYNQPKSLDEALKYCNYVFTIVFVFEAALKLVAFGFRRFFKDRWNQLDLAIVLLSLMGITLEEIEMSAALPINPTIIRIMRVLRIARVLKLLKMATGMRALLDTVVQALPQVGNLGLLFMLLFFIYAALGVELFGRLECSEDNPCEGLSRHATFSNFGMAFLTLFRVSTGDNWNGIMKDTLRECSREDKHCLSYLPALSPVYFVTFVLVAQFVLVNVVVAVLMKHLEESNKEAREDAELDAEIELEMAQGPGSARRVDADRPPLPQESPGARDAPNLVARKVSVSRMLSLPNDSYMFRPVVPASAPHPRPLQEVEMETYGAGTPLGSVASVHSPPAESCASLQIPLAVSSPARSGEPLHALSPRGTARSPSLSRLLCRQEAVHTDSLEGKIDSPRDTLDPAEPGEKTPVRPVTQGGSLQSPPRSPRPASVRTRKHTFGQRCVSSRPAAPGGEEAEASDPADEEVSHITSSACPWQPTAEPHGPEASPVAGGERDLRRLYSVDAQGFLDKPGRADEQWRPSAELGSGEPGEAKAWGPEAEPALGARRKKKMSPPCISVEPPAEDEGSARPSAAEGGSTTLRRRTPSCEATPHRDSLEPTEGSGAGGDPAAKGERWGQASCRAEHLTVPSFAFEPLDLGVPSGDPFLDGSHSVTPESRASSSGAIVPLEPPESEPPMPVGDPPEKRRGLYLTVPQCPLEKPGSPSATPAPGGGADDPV

Target: T1, human Cav3.2 channels (Homo sapiens, UniProt O95180)
T1 construct: expressed in transfected cells; host or cells: HEK293 cells (ATCC No. CRL-1573), plasmid pcDNA3.1(+)
Assay: Intracellular calcium concentration measurement (Fluo-4 AM) in stable cells expressing human Cav3.2 channels, buffer A / buffer B
Type: cell-based
Details: buffer A versus buffer B (Table 1)
Excerpt: Construction of Stable Cells Expressing Human Cav3.2 Channels
(1) A sequence produced by incorporating HindIII site and kozak sequence (GCCACC) into the 5′-terminal side of human Cav3.2 channel ORF (Open Reading Frame) gene and incorporating Kpnl site into the 3′-terminal side was incorporated into pcDNA3.1(+) (Thermo-Fisher Scientific, Inc., #V790-20), and the plasmid was transfected into HEK293 cells (ATCC No. CRL-1573) according to the protocol of FuGENE (registered trademark) HD Transfection Reagent (PROMEGA #E2311).
(2) Method for Measuring Intracellular Calcium Concentration
In the present measurement system, buffer A and buffer B having different potassium ion concentrations were used in order to evaluate the state-dependent Cav3.2 inhibitory action of a test compound.
Stable cell line expressing human Cav3.2 channels, which had been produced in (1), was seeded in a 96-well plate using DMEM medium including 10% FBS, and the cells were cultured for 48 hours under the conditions of 37° C. and 5% CO2. Subsequently, the medium was removed, and various wells that had been washed with a base buffer were treated with 80 μL of a fluorescent dye solution containing a mixed liquid of 22 μg of calcium fluorescence indicator Fluo-4 AM (Dojindo Laboratories Co., Ltd., #F311), 20 μL of DMSO, […] of 10% Pluronic F-127 (Thermo-Fisher Scientific, Inc., #P6866), and 4 mL of a base buffer. The cells were left to stand for 45 minutes at room temperature in the dark, and then the cells were washed with buffer A or buffer B. Solutions having various test compound concentrations and respectively containing buffer A or buffer B were added to the respective wells, the respective solutions containing DMSO at the same final concentration as that of the test compound as negative control, or containing the test compound dissolved in 100% DMSO at a final concentration of 0.1%. The cells were left to stand for another 15 minutes at room temperature in the dark, and the cells were analyzed using the following method using a microplate reader, EnVision (PerkinElmer, Inc.). First, the background fluorescence for each well was measured, subsequently an ionophore was added to the well, and the fluorescence of the baseline was measured. Subsequently, buffer A or buffer B containing added KCl at a concentration of 83.8 mM or 91.8 mM was added to each well, and an increase in fluorescence caused by a calcium influx generated by that stimulus was measured for 10 seconds. The percentage inhibition was calculated from the maximum fluorescence increment from the baseline, and the logarithmic value of the test compound concentration and the inhibitory activity were plotted to calculate the IC50 value. The analysis was carried out by measuring the fluorescence at 510 nm emitted when the cells were irradiated with exciting light at 485 nm.
Base buffer: 140 mM NaCl, 5 mM KCl, 1 mM MgCl2, 0.5 mM CaCl2, 10 mM Glucose, and 10 mM HEPES, pH 7.3
Buffer A: Equilibrium potential of potassium: −92 mV

## C[C@@H](NC(=O)[C@@H]1CCN(CC(=O)NC(C)(C)C)C1)c1ccc(OCC(F)(F)F)s1.Cl [Example 15, (R)-1-(2-(tert-butylamino)-2-oxoethyl)-N—((R)-1-(5-(2,2,2-trifluoroethoxy)thiophen-2-yl)ethyl)pyrrolidine-3-carboxamide hydrochloride]
  voltage-dependent T-type calcium channel inhibitory action in an inactivated state, compared to a resting state or closed state: superior

## C[C@@H](NC(=O)C1CC1c1nc2ccccc2n1C)c1ccc(OCC(F)(F)F)s1 (single isomer, unassigned) [Example 4A]
  voltage-dependent T-type calcium channel inhibitory action in an inactivated state, compared to a resting state or closed state: superior

## C[C@@H](NC(=O)C1CC1c1nc2ccccc2[nH]1)c1cnc(OCC(F)(F)F)s1 (single isomer, unassigned) [Example 8A]
  voltage-dependent T-type calcium channel inhibitory action in an inactivated state, compared to a resting state or closed state: superior

## C[C@@H](NC(=O)C1CC1c1nc2ccccc2n1C)c1ccc(OCC(F)(F)F)s1 (single isomer, unassigned) [Example 4B]
  voltage-dependent T-type calcium channel inhibitory action in an inactivated state, compared to a resting state or closed state: superior

## C[C@@H](NC(=O)C1CC1c1nc2ccccc2[nH]1)c1ncc(Br)s1 (single isomer, unassigned) [Example 11A]
  voltage-dependent T-type calcium channel inhibitory action in an inactivated state, compared to a resting state or closed state: superior

## C[C@@H](NC(=O)C1CC1c1nc2ccccc2[nH]1)c1ccc(Br)s1 (single isomer, unassigned) [Example 6B]
  voltage-dependent T-type calcium channel inhibitory action in an inactivated state, compared to a resting state or closed state: superior

## C[C@@H](NC(=O)[C@@H]1CCN(CC(=O)Nc2ccccc2)C1)c1ccc(OCC(F)(F)F)s1.Cl [Example 17]
  voltage-dependent T-type calcium channel inhibitory action in an inactivated state, compared to a resting state or closed state: superior

## C[C@H](NC(=O)C1CC1c1nc2ccccc2[nH]1)c1cnc(OCC(F)(F)F)s1 (single isomer, unassigned) [Example 7B]
  voltage-dependent T-type calcium channel inhibitory action in an inactivated state, compared to a resting state or closed state: superior

## C[C@H](NC(=O)C1CC1c1nc2ccccc2[nH]1)c1ccc(OCC(F)(F)F)s1 (single isomer, unassigned) [Example 2A]
  voltage-dependent T-type calcium channel inhibitory action in an inactivated state, compared to a resting state or closed state: superior

## C[C@@H](NC(=O)[C@@H]1CCN(CC(=O)Nc2nccs2)C1)c1ccc(OCC(F)(F)F)s1 [Example 16, (R)-1-(2-oxoethyl-2-(thiazol-2-ylamino)ethyl)-N—((R)-1-(5-(2,2,2-trifluoroethoxy)thiophen-2-yl)ethyl)pyrrolidine-3-carboxamide]
  voltage-dependent T-type calcium channel inhibitory action in an inactivated state, compared to a resting state or closed state: superior

## C[C@@H](NC(=O)C1CC1c1nc2ccccc2[nH]1)c1ccc(OCC(F)(F)F)s1 (single isomer, unassigned) [Example 3A]
  voltage-dependent T-type calcium channel inhibitory action in an inactivated state, compared to a resting state or closed state: superior

## C[C@@H](NC(=O)[C@@H]1CCN(c2nc3ccccc3[nH]2)C1)c1ccc(OCC(F)(F)F)s1 [Example 12]
  voltage-dependent T-type calcium channel inhibitory action in an inactivated state, compared to a resting state or closed state: superior

## Cc1cc([C@@H](C)NC(=O)C2CC2c2nc3ccccc3[nH]2)sc1OCC(F)(F)F (single isomer, unassigned) [Example 1A]
  voltage-dependent T-type calcium channel inhibitory action in an inactivated state, compared to a resting state or closed state: superior

## C[C@@H](NC(=O)C1CC1c1nc2ccccc2[nH]1)c1ccc(Br)s1 (single isomer, unassigned) [Example 6A]
  voltage-dependent T-type calcium channel inhibitory action in an inactivated state, compared to a resting state or closed state: superior
